Measured values taken from the supplement of paper PMC9233669.
Variants at the background level are over-represented here.

Key:
biotinyl-Ile-oxazolone = assay: self-aminoacylation, catalytic enhancement (BIO) (fold over background); higher = more active; k-Seq, kA / k0A0; sequences stand for … in GGGAAUGGAUCCACAUCUACGAAUUC…UUCACUGCAGACUUGACGAAGCUG
Procedure, shortened: (§1)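 Mutagenized RNA pools with a 21-nt variable region (0.43 μM) reacted with each biotinyl-aminoacyl-oxazolone at 2–1250 μM. Reactions ran in 50 μL HEPES/NaCl/KCl/MgCl2/CaCl2 buffer with 5% acetonitrile, pH 6.9–7.0, for 90 minutes at room temperature. Streptavidin-captured RNA was quantified by triplicate qPCR and Illumina sequencing, and per-sequence fraction reacted was fit to a pseudo-first-order model with 1000 bootstraps. Catalytic enhancement is median kA divided by the uncatalyzed rate, the low-activity peak of a bimodal Gaussian fit.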

biotinyl-Leu-oxazolone = assay: self-aminoacylation, catalytic enhancement (BLO) (fold over background); higher = more active; k-Seq, kA / k0A0; sequences stand for … in GGGAAUGGAUCCACAUCUACGAAUUC…UUCACUGCAGACUUGACGAAGCUG
Procedure, shortened: as §1

biotinyl-Trp-oxazolone = assay: self-aminoacylation, catalytic enhancement (BWO) (fold over background); higher = more active; k-Seq, kA / k0A0; sequences stand for … in GGGAAUGGAUCCACAUCUACGAAUUC…UUCACUGCAGACUUGACGAAGCUG
Procedure, shortened: as §1

biotinyl-Met-oxazolone = assay: self-aminoacylation, catalytic enhancement (BMO) (fold over background); higher = more active; k-Seq, kA / k0A0; sequences stand for … in GGGAAUGGAUCCACAUCUACGAAUUC…UUCACUGCAGACUUGACGAAGCUG
Procedure, shortened: as §1

biotinyl-Phe-oxazolone = assay: self-aminoacylation, catalytic enhancement (BFO) (fold over background); higher = more active; k-Seq, kA / k0A0; sequences stand for … in GGGAAUGGAUCCACAUCUACGAAUUC…UUCACUGCAGACUUGACGAAGCUG
Procedure, shortened: as §1

biotinyl-Val-oxazolone = assay: self-aminoacylation, catalytic enhancement (BVO) (fold over background); higher = more active; k-Seq, kA / k0A0; sequences stand for … in GGGAAUGGAUCCACAUCUACGAAUUC…UUCACUGCAGACUUGACGAAGCUG
Procedure, shortened: as §1

Sequence | self-aminoacylation (biotinyl-Ile-oxazolone) | self-aminoacylation (biotinyl-Leu-oxazolone) | self-aminoacylation (biotinyl-Trp-oxazolone) | self-aminoacylation (biotinyl-Met-oxazolone) | self-aminoacylation (biotinyl-Phe-oxazolone) | self-aminoacylation (biotinyl-Val-oxazolone)
CAACUACAAACAAUCGGUCUG [Fam1A.1 aminoacylation ribozyme variant] | 0.893 | 1.03 | 1.14 | 1.2 | 1.89 | 0.826
CAACUUCAAACAAUUGGUCUG [Fam1A.1 aminoacylation ribozyme variant] | 1.23 | 0.939 | 1.35 | 0.957 | 1.52 | 1.03
CAACUUCAAACACUCGGUCUG [Fam1A.1 aminoacylation ribozyme variant] | 1.58 | 0.975 | 1.23 | 1.21 | 1.83 | 1.57
CAACUUCAAACUAUCGGUCUG [Fam1A.1 aminoacylation ribozyme variant] | 1.53 | 1.51 | 1.44 | 1.08 | 1.71 | 1.22
CAACUUCAGACAAUCGGUCUG [Fam1A.1 aminoacylation ribozyme variant] | 1.09 | 1.08 | 1.43 | 0.989 | 2.46 | 1.09
CAAUUUGCUAAUAGUCGCAAG [Fam3.1 aminoacylation ribozyme variant] | 1.35 | 1.04 | 0.763 | 1.19 | 1.37 | 1.11
CAUCUUCAAACAAUCGGUCUG [Fam1A.1 aminoacylation ribozyme variant] | 1.14 | 1.96 | 24.5 | 1.48 | 47 | 1.23
CCAAACUUCAAGAAAUCGGUC [Fam1B.1 aminoacylation ribozyme variant] | 0.936 | 0.986 | 5.02 | 0.927 | 6.01 | 0.84
CCAAACUUCAAGCAAUGGGUC [Fam1B.1 aminoacylation ribozyme variant] | 1.03 | 0.883 | 0.699 | 0.956 | 0.614 | 0.94
CCACAAUUCAAGCAACCGGUC [Fam1B.1 aminoacylation ribozyme variant] | 1.48 | 1.21 | 1.15 | 0.785 | 1.43 | 1.53
CCACAAUUCAAGCAAUAGGUC [Fam1B.1 aminoacylation ribozyme variant] | 1.01 | 0.599 | 0.558 | 0.721 | 1.17 | 0.926
CCACAAUUCAAGCAAUCGGUC [Fam1B.1 aminoacylation ribozyme variant] | 1.17 | 0.973 | 1.69 | 0.936 | 2.8 | 1.16
CCACAAUUCAAGCAAUUGGUC [Fam1B.1 aminoacylation ribozyme variant] | 0.871 | 0.731 | 0.644 | 0.652 | 0.928 | 0.828
CCACAAUUCAAGCUAUCGGUC [Fam1B.1 aminoacylation ribozyme variant] | 1.29 | 1.05 | 0.938 | 0.937 | 0.887 | 1.1
CCACACAUAAAGCAAUCGGUC [Fam1B.1 aminoacylation ribozyme variant] | 1.02 | 0.745 | 0.747 | 0.868 | 0.889 | 0.888
CCACACAUCAAGCAAACGGUC [Fam1B.1 aminoacylation ribozyme variant] | 0.627 | 0.427 | 0.57 | 0.668 | 0.769 | 0.752
CCACACAUCAAGCACUCGGUC [Fam1B.1 aminoacylation ribozyme variant] | 0.935 | 0.724 | 0.94 | 1.02 | 0.805 | 1.18
CCACACAUCGAGCAAUCGGUC [Fam1B.1 aminoacylation ribozyme variant] | 1.24 | 1.38 | 1.07 | 0.972 | 1.08 | 1.67
CCACACGUCAAGCAAUCGGUU [Fam1B.1 aminoacylation ribozyme variant] | 1.54 | 1.32 | 1.45 | 1.57 | 0.693 | 2.28
CCACACUACAAGCAAACGGUC [Fam1B.1 aminoacylation ribozyme variant] | 0.698 | 0.627 | 0.279 | 0.441 | 0.77 | 0.839
CCACACUACAAGCAAUCGGAC [Fam1B.1 aminoacylation ribozyme variant] | 0.935 | 0.449 | 1.17 | 0.752 | 1.12 | 0.943

Sequence | self-aminoacylation (biotinyl-Ile-oxazolone) | self-aminoacylation (biotinyl-Leu-oxazolone) | self-aminoacylation (biotinyl-Trp-oxazolone) | self-aminoacylation (biotinyl-Met-oxazolone) | self-aminoacylation (biotinyl-Phe-oxazolone) | self-aminoacylation (biotinyl-Val-oxazolone)
CCACACUACAAGCAAUCGGUC [Fam1B.1 aminoacylation ribozyme variant] | 0.925 | 0.754 | 0.707 | 0.739 | 1.19 | 0.933
CCACACUACAAGCAAUCGGUG [Fam1B.1 aminoacylation ribozyme variant] | 3.62 | 6.9 | 5.03 | 4.92 | 31.8 | 2.85
CCACACUACAAGUAAUCGGUC [Fam1B.1 aminoacylation ribozyme variant] | 0.851 | 0.736 | 0.714 | 0.663 | 0.994 | 0.755
CCACACUACAGGCAAUCGGUC [Fam1B.1 aminoacylation ribozyme variant] | 1.15 | 1.21 | 1.09 | 1.05 | 0.908 | 1.23
CCACACUCCAAGCAAUUGGUC [Fam1B.1 aminoacylation ribozyme variant] | 0.708 | 0.646 | 0.445 | 0.504 | 1.13 | 0.742
CCACACUCCAAGCCAUCGGUC [Fam1B.1 aminoacylation ribozyme variant] | 1.63 | 1.43 | 0.873 | 1.26 | 1.22 | 1.29
CCACACUCCAAGCGAUCGGUC [Fam1B.1 aminoacylation ribozyme variant] | 1.39 | 1.06 | 1.42 | 1.3 | 0.651 | 1.55
CCACACUGCAACCAAUCGGUC [Fam1B.1 aminoacylation ribozyme variant] | 1.04 | 1.03 | 0.951 | 0.81 | 1.11 | 1.28
CCACACUGCAAGCAAUCGGUC [Fam1B.1 aminoacylation ribozyme variant] | 1.1 | 0.943 | 1 | 0.95 | 1.09 | 1.25
CCACACUGCAAGCACUCGGUC [Fam1B.1 aminoacylation ribozyme variant] | 1.63 | 1.39 | 1.47 | 1.54 | 2.57 | 1.66
CCACACUGCACGCAAUCGGUC [Fam1B.1 aminoacylation ribozyme variant] | 1.62 | 1.42 | 1.28 | 1.65 | 1.5 | 1.65
CCACACUUAAAACAAUCGGUC [Fam1B.1 aminoacylation ribozyme variant] | 0.999 | 0.619 | 0.855 | 0.841 | 1.09 | 0.932
CCACACUUAAAGCAAUGGGUC [Fam1B.1 aminoacylation ribozyme variant] | 0.943 | 0.76 | 1.33 | 0.701 | 0.874 | 0.779
CCACACUUCAAACCAUCGGUC [Fam1B.1 aminoacylation ribozyme variant] | 0.866 | 1.13 | 0.754 | 0.898 | 0.978 | 1.07
CCACACUUCAACCAAUCGCUC [Fam1B.1 aminoacylation ribozyme variant] | 1.27 | 1.48 | 1.21 | 0.967 | 0.898 | 1.32
CCACACUUCAAGAAGUCGGUC [Fam1B.1 aminoacylation ribozyme variant] | 0.903 | 1.01 | 0.924 | 1.14 | 0.878 | 0.996
CCACACUUCAAGCAAACGGUG [Fam1B.1 aminoacylation ribozyme variant] | 3.12 | 5.1 | 4.31 | 3.91 | 10.7 | 3.33
CCACACUUCAAGCAAAUGGUC [Fam1B.1 aminoacylation ribozyme variant] | 0.787 | 0.547 | 0.41 | 0.45 | 1 | 0.637
CCACACUUCAAGCAACCGGAC [Fam1B.1 aminoacylation ribozyme variant] | 1.15 | 0.602 | 0.606 | 0.839 | 0.734 | 1.07
CCACACUUCAAGCAACCGUUC [Fam1B.1 aminoacylation ribozyme variant] | 1.02 | 0.754 | 1.01 | 1.01 | 0.885 | 1.5
CCACACUUCAAGCAAGCGGUG [Fam1B.1 aminoacylation ribozyme variant] | 1.97 | 3.19 | 2.4 | 2.45 | 1.73 | 1.86
